Experiments:
MDA-MB-231 = test: cells; assay type: functional, cell-based; settings: Homo sapiens, MDA-MB-231, 72 h
MCF7 = test: Anti tumor activity on human breast cancer cell line MDR-positive MCF-7 ADRr after 72 hours of treatment; assay type: functional, cell-based; settings: MCF7, 72 h

COc1cc2c(c(OC)c1OC)-c1ccc(SC)c(=O)cc1[C@@H](N)CC2
IC50 (MDA-MB-231): 2.2 nM
IC50 (MCF7): 4200 nM

Reference: ChEMBL document CHEMBL1132543, “N-deacetyl-N-aminoacylthiocolchicine derivatives: synthesis and biological evaluation on MDR-positive and MDR-negative human cancer cell lines” (J Med Chem, 1999)
